We go through 8 substances from PMC4906249.

Amino acid sequences for entries named in this document (tags omitted).
UniProt O95251: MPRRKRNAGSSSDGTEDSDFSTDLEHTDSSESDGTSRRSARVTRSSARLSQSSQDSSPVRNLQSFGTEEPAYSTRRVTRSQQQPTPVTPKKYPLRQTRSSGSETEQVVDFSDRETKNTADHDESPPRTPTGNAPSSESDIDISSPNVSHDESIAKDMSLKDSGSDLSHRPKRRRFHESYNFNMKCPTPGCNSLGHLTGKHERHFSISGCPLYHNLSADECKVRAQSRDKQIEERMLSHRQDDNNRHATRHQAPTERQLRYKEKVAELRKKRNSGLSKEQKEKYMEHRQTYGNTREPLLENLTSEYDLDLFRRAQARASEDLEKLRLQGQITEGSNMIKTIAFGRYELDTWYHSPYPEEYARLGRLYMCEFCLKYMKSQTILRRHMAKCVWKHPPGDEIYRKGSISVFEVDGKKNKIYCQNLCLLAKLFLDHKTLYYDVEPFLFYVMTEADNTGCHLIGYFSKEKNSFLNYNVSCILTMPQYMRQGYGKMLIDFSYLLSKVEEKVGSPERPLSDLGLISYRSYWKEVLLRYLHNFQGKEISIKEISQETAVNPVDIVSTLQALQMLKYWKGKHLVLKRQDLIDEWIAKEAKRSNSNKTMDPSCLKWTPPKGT
UniProt O95696: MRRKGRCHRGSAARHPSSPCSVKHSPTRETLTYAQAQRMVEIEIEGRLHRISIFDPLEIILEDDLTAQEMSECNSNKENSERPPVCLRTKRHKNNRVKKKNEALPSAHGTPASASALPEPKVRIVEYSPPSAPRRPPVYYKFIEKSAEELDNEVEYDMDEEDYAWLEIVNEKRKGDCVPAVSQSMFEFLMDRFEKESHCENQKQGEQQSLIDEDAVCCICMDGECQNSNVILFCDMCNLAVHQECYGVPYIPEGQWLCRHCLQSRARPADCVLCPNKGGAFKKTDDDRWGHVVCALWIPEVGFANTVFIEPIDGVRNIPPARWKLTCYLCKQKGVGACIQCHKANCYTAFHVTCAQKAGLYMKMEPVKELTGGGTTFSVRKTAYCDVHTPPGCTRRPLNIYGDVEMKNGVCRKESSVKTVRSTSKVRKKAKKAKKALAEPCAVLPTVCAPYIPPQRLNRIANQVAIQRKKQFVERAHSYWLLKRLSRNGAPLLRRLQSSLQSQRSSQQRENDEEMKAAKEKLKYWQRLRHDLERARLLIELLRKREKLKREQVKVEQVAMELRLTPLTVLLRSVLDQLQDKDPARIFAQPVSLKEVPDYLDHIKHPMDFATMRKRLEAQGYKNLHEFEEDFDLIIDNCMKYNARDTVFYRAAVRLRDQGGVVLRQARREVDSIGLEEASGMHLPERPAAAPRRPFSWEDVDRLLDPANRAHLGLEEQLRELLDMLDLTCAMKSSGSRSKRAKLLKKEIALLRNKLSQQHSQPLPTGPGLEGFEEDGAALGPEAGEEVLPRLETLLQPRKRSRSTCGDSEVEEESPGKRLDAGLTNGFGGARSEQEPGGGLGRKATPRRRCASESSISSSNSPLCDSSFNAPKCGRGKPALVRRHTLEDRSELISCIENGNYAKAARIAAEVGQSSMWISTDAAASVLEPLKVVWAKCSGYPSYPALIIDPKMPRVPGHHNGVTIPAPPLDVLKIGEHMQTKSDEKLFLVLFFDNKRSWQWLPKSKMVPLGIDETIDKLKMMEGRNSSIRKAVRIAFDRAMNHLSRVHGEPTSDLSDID
UniProt Q8NCD3: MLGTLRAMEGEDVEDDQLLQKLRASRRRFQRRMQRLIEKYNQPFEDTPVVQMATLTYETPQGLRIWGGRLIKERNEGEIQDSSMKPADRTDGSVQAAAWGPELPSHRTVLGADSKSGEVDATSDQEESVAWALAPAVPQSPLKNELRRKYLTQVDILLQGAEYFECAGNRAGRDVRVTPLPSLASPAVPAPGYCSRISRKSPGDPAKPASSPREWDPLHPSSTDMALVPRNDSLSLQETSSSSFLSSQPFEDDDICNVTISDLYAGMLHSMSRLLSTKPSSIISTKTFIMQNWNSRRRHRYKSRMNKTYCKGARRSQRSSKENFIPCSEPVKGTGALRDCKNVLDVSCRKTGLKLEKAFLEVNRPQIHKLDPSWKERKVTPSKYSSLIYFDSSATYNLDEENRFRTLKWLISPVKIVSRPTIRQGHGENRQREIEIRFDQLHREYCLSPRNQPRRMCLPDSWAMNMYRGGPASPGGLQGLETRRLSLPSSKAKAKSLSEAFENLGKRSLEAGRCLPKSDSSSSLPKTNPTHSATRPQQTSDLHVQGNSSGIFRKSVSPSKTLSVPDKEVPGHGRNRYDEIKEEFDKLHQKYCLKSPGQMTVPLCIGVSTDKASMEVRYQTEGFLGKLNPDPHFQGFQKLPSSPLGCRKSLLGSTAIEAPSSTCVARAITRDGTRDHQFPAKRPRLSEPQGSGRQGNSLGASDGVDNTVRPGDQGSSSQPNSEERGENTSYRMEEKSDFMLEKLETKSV

Results are given in words; binding and its absence hold for the method and conditions named. For part of these data: Binding seen in cells or lysates may run through a third protein. Some entries that bind do so weakly or less than the wild type. For part of these data: Tags and fused reporters may be left off the sequences shown.

Assay [1] has as its target M18BP1 (immunoprecipitated with anti-M18BP1 antibody) (human) (UniProt Q6P0N0). Put plainly: co-IP; cytosolic extract of transfected HeLa or 293T cells, immunoprecipitation with anti-KAT7 and anti-M18BP1 antibodies on Protein G Dynabeads; ectopically expressed tagged proteins detected by immunoblot. (In general: In western blotting, separated proteins are transferred to a membrane and probed.)

Assay [2] has as its target KAT7 (immunoprecipitated with anti-KAT7 antibody) (human) (UniProt O95251). The description is as above.
The target of assay [3] is T1, tetR-EYFP-fused M18BP1 carboxyl-terminal domain (851–1,132) (human) (UniProt Q6P0N0).
T1 sequence: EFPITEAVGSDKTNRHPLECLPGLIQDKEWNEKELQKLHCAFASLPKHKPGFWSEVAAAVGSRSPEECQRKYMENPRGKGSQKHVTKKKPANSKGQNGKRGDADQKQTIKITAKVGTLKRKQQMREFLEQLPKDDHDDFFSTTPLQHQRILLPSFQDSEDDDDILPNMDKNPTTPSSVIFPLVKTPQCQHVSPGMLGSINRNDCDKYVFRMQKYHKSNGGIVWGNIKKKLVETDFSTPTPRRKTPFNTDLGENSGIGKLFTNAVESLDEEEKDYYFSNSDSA
Put plainly: fluorescence microscopy-based interaction-trap assay; tetR-EYFP fusion tethered to the ectopic alphoid^tetO DNA integration site in HeLa-Int-03 cells; recruitment of Halo-tag-fused prey seen with Halo-TMR ligand.

The target of assay [4] is tetR-EYFP-hMis18β (human) (UniProt O43482). The description is as above.
For assay [5], the target named is tetR-EYFP-fused M18BP1 amino-terminal domain (1–375) (human) (UniProt Q6P0N0). The assay is described as above.

For “BRPF2 (ectopically expressed tagged protein, co-immunoprecipitation) (from UniProt O95696 1-1058)”, the binding entry in assay [1] was “binds”.

On to “HJURP (ectopically expressed tagged protein, co-immunoprecipitation) (from UniProt Q8NCD3 1-748)”, for which the binding entry in assay [2] and in assay [1] was “binds” in each case. As to “Halo-fused BRPF2 (from UniProt O95696 1-1058)”, the binding entry in assay [3] is listed as “binds”. As to “Halo-fused ING4 (from UniProt Q9UNL4 1-249)”, the binding entry in assay [4] is recorded as “binds”. The same measure, in the same setting: as for “Halo-fused ING5 (from UniProt Q8WYH8 1-240)”, the entry is “binds”. In the case of “Halo-tag fused KAT7 (from UniProt O95251 1-611) (enzyme)”, the binding result in assay [3] and in assay [5] was “binds” throughout. In the case of “ING4 (ectopically expressed tagged protein, co-immunoprecipitation) (from UniProt Q9UNL4 1-249)”, the binding entry in assay [2] and in assay [1] was “binds” in each case. Take “ING5 (ectopically expressed tagged protein, co-immunoprecipitation) (from UniProt Q8WYH8 1-240)”: the binding entry in assay [2] and in assay [1] was “binds” throughout.
